Reference: patent US20230250557A1 (published 2023)
These are yes or no findings as the source states them, for the method shown. Some binding calls cover weakened binding; strength is not graded here.

The chains behind the UniProt entries cited, without tags or fusion partners.
UniProt Q9NZQ7: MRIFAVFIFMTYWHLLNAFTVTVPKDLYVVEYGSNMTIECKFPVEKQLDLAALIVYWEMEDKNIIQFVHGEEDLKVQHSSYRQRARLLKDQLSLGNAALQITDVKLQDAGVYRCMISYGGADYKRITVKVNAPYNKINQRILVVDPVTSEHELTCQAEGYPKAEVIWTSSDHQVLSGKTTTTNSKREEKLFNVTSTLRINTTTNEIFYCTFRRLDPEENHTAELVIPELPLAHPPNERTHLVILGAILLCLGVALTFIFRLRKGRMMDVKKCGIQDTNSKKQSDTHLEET

The binders below were run against Biotinylated human HER2 antigen comprising a portion of the HER2 extracellular domain (Acro Biosystems) (human) (UniProt P04626) (assay: ELISA screen of clone lysates on coated antigen, anti-FLAG-HRP).

binding	Binder
binds	3-8A (designed binder, CheBc scaffold clone from modified pQE-80L in E. coli, purified on cobalt resin, detected with anti-FLAG) GSHMVSGKIVVIGSSTGGPRSLDMIIPNLPKNFPAPIVVVQHGSWVDGSWTWGTKSLAQRLDSTSELTVKEAEDGEEVKPGFVYIAPGDFHLGLKAQNGKVFFFLDKSGWWNGGYWVTGVRPAVDFTLDKAAEIYKEKTIAVILTGGVNLGLYNGGDGTKGAFKVKFYGGTVIAEDKETSVVFGMPKSVIEEGYADYVLPAYKIPEKLIELV
binds	3-3A (designed binder) GSHMVSGKIVVIGSSTGGPRSLDMIIPNLPKNFPAPIVVVQHGYLRLGEWRGGTKSLAQRLDSTSELTVKEAEDGEEVKPGFVYIAPGDFHLGLKAQNGKVFFFLDKSGSALVGVSADGVRPAVDFTLDKAAEIYKEKTIAVILTGGRWYGNVEGGDGTKGAFKVKFYGGTVIAEDKETSVVFGMPKSVIEEGYADYVLPAYKIPEKLIELV
binds	3-1D (designed binder) GSHMVSGKIVVIGSSTGGPRSLDMIIPNLPKNFPAPIVVVQHGYYWGGAVYVGTKSLAQRLDSTSELTVKEAEDGEEVKPGFVYIAPGDFHLGLKAQNGKVFFFLDKSGRVVDGWDYDGVRPAVDFTLDKAAEIYKEKTIAVILTGGYASGYGDGGDGTKGAFKVKFYGGTVIAEDKETSVVFGMPKSVIEEGYADYVLPAYKIPEKLIELV
binds	3-7E (designed binder, CheBc scaffold clone from modified pQE-80L in E. coli, purified on cobalt resin, detected with anti-FLAG) GSHMVSGKIVVIGSSTGGPRSLDMIIPNLPKNFPAPIVVVQHGYYWGSWGYEGTKSLAQRLDSTSELTVKEAEDGEEVKPGFVYIAPGDFHLGLKAQNGKVFFFLDKSGRVVDGWDYDGVRPAVDFTLDKAAEIYKEKTIAVILTGGWDTGSELGGDGTKGAFKVKFYGGTVIAEDKETSVVFGMPKSVIEEGYADYVLPAYKIPEKLIELV
binds	3-5A (designed binder) GSHMVSGKIVVIGSSTGGPRSLDMIIPNLPKNFPAPIVVVQHGWSWWGDWTSGTKSLAQRLDSTSELTVKEAEDGEEVKPGFVYIAPGDFHLGLKAQNGKVFFFLDKSGSWGYGDYWAGVRPAVDFTLDKAAEIYKEKTIAVILTGGTWDGWVTGGDGTKGAFKVKFYGGTVIAEDKETSVVFGMPKSVIEEGYADYVLPAYKIPEKLIELV

These binders were tested against Biotinylated human PD-L1 antigen comprising a human IgG1 Fc domain (Acro Biosystems) (human) (UniProt Q9NZQ7) in the same assay as above.

binding	Binder
binds	1-2A (designed binder) GSHMVSGKIVVIGSSTGGPRSLDMIIPNLPKNFPAPIVVVQHGAGWWGGGARGTKSLAQRLDSTSELTVKEAEDGEEVKPGFVYIAPGDFHLGLKAQNGKVFFFLDKSGRVWAGAEAWGVRPAVDFTLDKAAEIYKEKTIAVILTGGSETGSWGGGDGTKGAFKVKFYGGTVIAEDKETSVVFGMPKSVIEEGYADYVLPAYKIPEKLIELV
binds	1-10B (designed binder) GSHMVSGKIVVIGSSTGGPRSLDMIIPNLPKNFPAPIVVVQHGYSGTGWRTVGTKSLAQRLDSTSELTVKEAEDGEEVKPGFVYIAPGDFHLGLKAQNGKVFFFLDKSGVAYSGWYVYGVRPAVDFTLDKAAEIYKEKTIAVILTGGWSLGVYLGGDGTKGAFKVKFYGGTVIAEDKETSVVFGMPKSVIEEGYADYVLPAYKIPEKLIELV
binds	2-3H (designed binder) GSHMVSGKIVVIGSSTGGPRSLDMIIPNLPKNFPAPIVVVQHGWEESGWLVEGTKSLAQRLDSTSELTVKEAEDGEEVKPGFVYIAPGDFHLGLKAQNGKVFFFLDKSGLNYWGVWNWGVRPAVDFTLDKAAEIYKEKTIAVILTGGREGGATYGGDGTKGAFKVKFYGGTVIAEDKETSVVFGMPKSVIEEGYADYVLPAYKIPEKLIELV
binds	1-12E (designed binder, CheBc scaffold clone from modified pQE-80L in E. coli, purified on cobalt resin, detected with anti-FLAG) GSHMVSGKIVVIGSSTGGPRSLDMIIPNLPKNFPAPIVVVQHGDGWYGGGAVGTKSLAQRLDSTSELTVKEAEDGEEVKPGFVYIAPGDFHLGLKAQNGKVFFFLDKSGGSYTGEWTWGVRPAVDFTLDKAAEIYKEKTIAVILTGGARYGDLRGGDGTKGAFKVKFYGGTVIAEDKETSVVFGMPKSVIEEGYADYVLPAYKIPEKLIELV
binds	1-1B (designed binder, CheBc scaffold clone from modified pQE-80L in E. coli, purified on cobalt resin, detected with anti-FLAG) GSHMVSGKIVVIGSSTGGPRSLDMIIPNLPKNFPAPIVVVQHGEGWYGGGAVGTKSLAQRLDSTSELTVKEAEDGEEVKPGFVYIAPGDFHLGLKAQNGKVFFFLDKSGRGLRGGWSWGVRPAVDFTLDKAAEIYKEKTIAVILTGGAATGSSNGGDGTKGAFKVKFYGGTVIAEDKETSVVFGMPKSVIEEGYADYVLPAYKIPEKLIELV
binds	1-12C (designed binder, CheBc scaffold clone from modified pQE-80L in E. coli, purified on cobalt resin, detected with anti-FLAG) GSHMVSGKIVVIGSSTGGPRSLDMIIPNLPKNFPAPIVVVQHGWALNGRYTLGTKSLAQRLDSTSELTVKEAEDGEEVKPGFVYIAPGDFHLGLKAQNGKVFFFLDKSGARDRGREWYGVRPAVDFTLDKAAEIYKEKTIAVILTGGYWEGDYAGGDGTKGAFKVKFYGGTVIAEDKETSVVFGMPKSVIEEGYADYVLPAYKIPEKLIELV
binds	2-5C (designed binder) GSHMVSGKIVVIGSSTGGPRSLDMIIPNLPKNFPAPIVVVQHGGHPQGDINRGGTKSLAQRLDSTSELTVKEAEDGEEVKPGFVYIAPGDFHLGLKAQNGKVFFFLDKSGGAMNYGHAWGGVRPAVDFTLDKAAEIYKEKTIAVILTGGNVEGVWEGGDGTKGAFKVKFYGGTVIAEDKETSVVFGMPKSVIEEGYADYVLPAYKIPEKLIELV
binds	1-8E (designed binder) GSHMVSGKIVVIGSSTGGPRSLDMIIPNLPKNFPAPIVVVQHGEVLDGAYEEGTKSLAQRLDSTSELTVKEAEDGEEVKPGFVYIAPGDFHLGLKAQNGKVFFFLDKSGCRYEGYGTLGVRPAVDFTLDKAAEIYKEKTIAVILTGGYSEGNYAGGDGTKGAFKVKFYGGTVIAEDKETSVVFGMPKSVIEEGYADYVLPAYKIPEKLIELV
binds	2-6D (designed binder) GSHMVSGKIVVIGSSTGGPRSLDMIIPNLPKNFPAPIVVVQHGAAAWGNVLVGTKSLAQRLDSTSELTVKEAEDGEEVKPGFVYIAPGDFHLGLKAQNGKVFFFLDKSGTYWDGYGWYGVRPAVDFTLDKAAEIYKEKTIAVILTGGEWDGWGLGGDGTKGAFKVKFYGGTVIAEDKETSVVFGMPKSVIEEGYADYVLPAYKIPEKLIELV
binds	1-1E (designed binder) GSHMVSGKIVVIGSSTGGPRSLDMIIPNLPKNFPAPIVVVQHGYDYWGEVVVGTKSLAQRLDSTSELTVKEAEDGEEVKPGFVYIAPGDFHLGLKAQNGKVFFFLDKSGSWVRGSEALGVRPAVDFTLDKAAEIYKEKTIAVILTGGYWDGTWTGGDGTKGAFKVKFYGGTVIAEDKETSVVFGMPKSVIEEGYADYVLPAYKIPEKLIELV
binds	1-3E (designed binder) GSHMVSGKIVVIGSSTGGPRSLDMIIPNLPKNFPAPIVVVQHGDAWWGGGWRGTKSLAQRLDSTSELTVKEAEDGEEVKPGFVYIAPGDFHLGLKAQNGKVFFFLDKSGDSYTGNWAWGVRPAVDFTLDKAAEIYKEKTIAVILTGGASTGYNGGGDGTKGAFKVKFYGGTVIAEDKETSVVFGMPKSVIEEGYADYVLPAYKIPEKLIELV
binds	2-8B (designed binder) GSHMVSGKIVVIGSSTGGPRSLDMIIPNLPKNFPAPIVVVQHGYDTLGWWGDGTKSLAQRLDSTSELTVKEAEDGEEVKPGFVYIAPGDFHLGLKAQNGKVFFFLDKSGDDYVGYGYLGVRPAVDFTLDKAAEIYKEKTIAVILTGGDWRGVWGGGDGTKGAFKVKFYGGTVIAEDKETSVVFGMPKSVIEEGYADYVLPAYKIPEKLIELV
binds	2-7B (designed binder) GSHMVSGKIVVIGSSTGGPRSLDMIIPNLPKNFPAPIVVVQHGEWESGNDENGTKSLAQRLDSTSELTVKEAEDGEEVKPGFVYIAPGDFHLGLKAQNGKVFFFLDKSGYWWEGTNRWGVRPAVDFTLDKAAEIYKEKTIAVILTGGGWYGYEWGGDGTKGAFKVKFYGGTVIAEDKETSVVFGMPKSVIEEGYADYVLPAYKIPEKLIELV
binds	1-11C (designed binder) GSHMVSGKIVVIGSSTGGPRSLDMIIPNLPKNFPAPIVVVQHGAGWYGGGAAGTKSLAQRLDSTSELTVKEAEDGEEVKPGFVYIAPGDFHLGLKAQNGKVFFFLDKSGNSVAGRWYWGVRPAVDFTLDKAAEIYKEKTIAVILTGGEVEGEYDGGDGTKGAFKVKFYGGTVIAEDKETSVVFGMPKSVIEEGYADYVLPAYKIPEKLIELV
binds	1-1F (designed binder) GSHMVSGKIVVIGSSTGGPRSLDMIIPNLPKNFPAPIVVVQHGVSWWGGGSWGTKSLAQRLDSTSELTVKEAEDGEEVKPGFVYIAPGDFHLGLKAQNGKVFFFLDKSGRTYYGLAAWGVRPAVDFTLDKAAEIYKEKTIAVILTGGDAEGWYLGGDGTKGAFKVKFYGGTVIAEDKETSVVFGMPKSVIEEGYADYVLPAYKIPEKLIELV
binds	1-12D (designed binder) GSHMVSGKIVVIGSSTGGPRSLDMIIPNLPKNFPAPIVVVQHGVSWWGGGSWGTKSLAQRLDSTSELTVKEAEDGEEVKPGFVYIAPGDFHLGLKAQNGKVFFFLDKSGRTYYGLAAWGVRPAVDFTLDKAAEIYKEKTIAVILTGGDAEGWYLGGDGTKGAFKVKFYGGTVIAEDKETSVVFGMPKSVIEEGYADYVLPAYKIPEKLIELV
binds	2-5H (designed binder) GSHMVSGKIVVIGSSTGGPRSLDMIIPNLPKNFPAPIVVVQHGGHPQGDDLRGGTKSLAQRLDSTSELTVKEAEDGEEVKPGFVYIAPGDFHLGLKAQNGKVFFFLDKSGYWYGGWSWYGVRPAVDFTLDKAAEIYKEKTIAVILTGGWYSGAGLGGDGTKGAFKVKFYGGTVIAEDKETSVVFGMPKSVIEEGYADYVLPAYKIPEKLIELV
binds	1-12B (designed binder) GSHMVSGKIVVIGSSTGGPRSLDMIIPNLPKNFPAPIVVVQHGWGEVGETEVGTKSLAQRLDSTSELTVKEAEDGEEVKPGFVYIAPGDFHLGLKAQNGKVFFFLDKSGYSYAGELWRGVRPAVDFTLDKAAEIYKEKTIAVILTGGSWWGDLWGGDGTKGAFKVKFYGGTVIAEDKETSVVFGMPKSVIEEGYADYVLPAYKIPEKLIELV
